The effect of the compound repeats well; differences between the knockouts mostly do not.
Test system: SKBR3
Test: relative cell number vs DMSO control (72 h) (% of DMSO); higher = less growth inhibition (more cells)
Protocol: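 QMAP-Seq: a pool of 5 breast cancer cell lines (ZR-75-1, SKBR3, HCC-38, MDA-MB-231, BT-20), each carrying 12 doxycycline-inducible Cas9 sgRNA perturbations (11 knockouts plus non-targeting sgNT), was treated with compounds for 72 h at four 10-fold doses (10 nM-10 uM or 1 nM-1 uM range). Barcodes were amplified and sequenced, and cell number was interpolated from 293T spike-in standard curves. The result is expressed as % of the median of DMSO wells. Two biological replicates.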

OCCn1cc(-c2ccc3c(c2)CC/C3=N\O)c(-c2ccncc2)n1 [GDC0879]
Settings | relative cell number
sgRNA knockout: sgATF3, 10 nM | 106
sgRNA knockout: sgATF3, 100 nM | 98.8
sgRNA knockout: sgATF3, 1000 nM | 116
sgRNA knockout: sgATF3, 10000 nM | 109
sgRNA knockout: sgATF4, 10 nM | 111
sgRNA knockout: sgATF4, 100 nM | 105
sgRNA knockout: sgATF4, 1000 nM | 94.5
sgRNA knockout: sgATF4, 10000 nM | 97.5
sgRNA knockout: sgATF6, 10 nM | 88.58
sgRNA knockout: sgATF6, 100 nM | 116
sgRNA knockout: sgATF6, 1000 nM | 93.4
sgRNA knockout: sgATF6, 10000 nM | 97.1
sgRNA knockout: sgATG7, 10 nM | 93.4
sgRNA knockout: sgATG7, 100 nM | 102
sgRNA knockout: sgATG7, 1000 nM | 112
sgRNA knockout: sgATG7, 10000 nM | 108
sgRNA knockout: sgERN1, 10 nM | 122
sgRNA knockout: sgERN1, 100 nM | 130
sgRNA knockout: sgERN1, 1000 nM | 117.5
sgRNA knockout: sgERN1, 10000 nM | 103
sgRNA knockout: sgHSF1, 10 nM | 110
sgRNA knockout: sgHSF1, 100 nM | 121
sgRNA knockout: sgHSF1, 1000 nM | 114
sgRNA knockout: sgHSF1, 10000 nM | 86.2
sgRNA knockout: sgHSF2, 10 nM | 83.7
sgRNA knockout: sgHSF2, 100 nM | 104
sgRNA knockout: sgHSF2, 1000 nM | 81.7
sgRNA knockout: sgHSF2, 10000 nM | 98.7
sgRNA knockout: sgKEAP1, 10 nM | 87.4
sgRNA knockout: sgKEAP1, 100 nM | 106
sgRNA knockout: sgKEAP1, 1000 nM | 99.5
sgRNA knockout: sgKEAP1, 10000 nM | 95.7
sgRNA knockout: sgNFE2L2, 10 nM | 89.7
sgRNA knockout: sgNFE2L2, 100 nM | 103
sgRNA knockout: sgNFE2L2, 1000 nM | 110
sgRNA knockout: sgNFE2L2, 10000 nM | 104
sgRNA knockout: sgSLC35F2, 10 nM | 103
sgRNA knockout: sgSLC35F2, 100 nM | 101
sgRNA knockout: sgSLC35F2, 1000 nM | 92.3
sgRNA knockout: sgSLC35F2, 10000 nM | 101
sgRNA knockout: sgXBP1, 10 nM | 124
sgRNA knockout: sgXBP1, 100 nM | 96.1
sgRNA knockout: sgXBP1, 1000 nM | 111
sgRNA knockout: sgXBP1, 10000 nM | 104

C[C@@H]1CN(CC(=O)Nc2ccc3c(c2)Cc2cccc(-c4cc(=O)cc(N5CCOCC5)o4)c2S3)C[C@H](C)O1
Settings | relative cell number
sgRNA knockout: sgATF3, 10 nM | 100
sgRNA knockout: sgATF3, 100 nM | 78
sgRNA knockout: sgATF3, 1000 nM | 75.5
sgRNA knockout: sgATF3, 10000 nM | 31.9
sgRNA knockout: sgATF4, 10 nM | 80.7
sgRNA knockout: sgATF4, 100 nM | 97.68
sgRNA knockout: sgATF4, 1000 nM | 74
sgRNA knockout: sgATF4, 10000 nM | 41.7
sgRNA knockout: sgATF6, 10 nM | 79
sgRNA knockout: sgATF6, 100 nM | 111
sgRNA knockout: sgATF6, 1000 nM | 79.8
sgRNA knockout: sgATF6, 10000 nM | 28.3
sgRNA knockout: sgATG7, 10 nM | 86.1
sgRNA knockout: sgATG7, 100 nM | 106
sgRNA knockout: sgATG7, 1000 nM | 80.5
sgRNA knockout: sgATG7, 10000 nM | 43
sgRNA knockout: sgERN1, 10 nM | 102
sgRNA knockout: sgERN1, 100 nM | 84.4
sgRNA knockout: sgERN1, 1000 nM | 85
sgRNA knockout: sgERN1, 10000 nM | 24.6
sgRNA knockout: sgHSF1, 10 nM | 87.31
sgRNA knockout: sgHSF1, 100 nM | 77.3
sgRNA knockout: sgHSF1, 1000 nM | 78.9
sgRNA knockout: sgHSF1, 10000 nM | 30.3
sgRNA knockout: sgHSF2, 10 nM | 79.5
sgRNA knockout: sgHSF2, 100 nM | 70.7
sgRNA knockout: sgHSF2, 1000 nM | 84.7
sgRNA knockout: sgHSF2, 10000 nM | 36.6
sgRNA knockout: sgKEAP1, 10 nM | 80.1
sgRNA knockout: sgKEAP1, 100 nM | 90.6
sgRNA knockout: sgKEAP1, 1000 nM | 75
sgRNA knockout: sgKEAP1, 10000 nM | 36.5
sgRNA knockout: sgNFE2L2, 10 nM | 101
sgRNA knockout: sgNFE2L2, 100 nM | 99.7
sgRNA knockout: sgNFE2L2, 1000 nM | 77.4
sgRNA knockout: sgNFE2L2, 10000 nM | 25
sgRNA knockout: sgSLC35F2, 10 nM | 84.9
sgRNA knockout: sgSLC35F2, 100 nM | 70.6
sgRNA knockout: sgSLC35F2, 1000 nM | 81.9
sgRNA knockout: sgSLC35F2, 10000 nM | 41
sgRNA knockout: sgXBP1, 10 nM | 83.5
sgRNA knockout: sgXBP1, 100 nM | 80.3
sgRNA knockout: sgXBP1, 1000 nM | 80.2
sgRNA knockout: sgXBP1, 10000 nM | 38.3
